Measured values as given in paper PMC10053710, “Influence of Lipidation Pattern of the KR12 Fragment of Peptide LL-37 on Its Antibacterial and Hemolytic Activities” (International Journal of Molecular Sciences, 2023).
Where a SMILES comes first, the peptide text is derived from it. Where no end group is shown, it is not given here. The star is where a group is joined. Benzoyl(4-Ph) = O=C(c1ccc(-c2ccccc2)cc1)*; PhAc = O=C(Cc1ccccc1)*; Bz = O=C(c1ccccc1)*

Legend:
[1] = tested on: Pseudomonas aeruginosa ATCC 9027; format: cell-based; settings: calculated from MHC5 (hRBCs) and MIC
Experimental: (§1) Tests of the antibacterial activity were carried out as we just described. Briefly, for assays, the following strains of ESKAPE bacteria were chosen: Acinetobacter baumannii ATCC BAA-1605, Enterococcus faecium ATCC 700221, Klebsiella aerogenes ATCC 13048 (formerly Enterobacter aerogenes), Klebsiella pneumoniae ATCC 700603, and Pseudomonas aeruginosa ATCC 9027. Moreover, the reference strains of Staphylococcus aureus were used: S. aureus ATCC 25923, S. aureus ATCC 6538, S. aureus ATCC 33591 (MRSA), S. aureus ATCC 9144, and S. aureus ATCC 12598. Before experiments, all the strains were stored at −80 °C in Roti®-Store cryo vials (Carl Roth GmbH, Karlsruhe, Germany). To evaluate the activity of the compounds, bacteria were transferred into fresh Mueller–Hinton medium (Becton Dickinson, Warszawa, Poland) and incubated for 24 h at 37 °C. In the next step, bacterial inoculums were seeded on Mueller–Hinton agar plates (BioMaxima SA, Lublin, Poland) and incubated again for 24 h. The MIC values were determined using the broth microdilution method according to the Clinical and Laboratory Standards Institute Protocol. The initial inoculums of bacteria (0.5 × 10^5 colony forming units (CFU)/mL) prepared in Mueller–Hinton broth were exposed to the ranging concentrations of peptides (1–512 µg/mL). The experiments were conducted on 96-well microtiter plates, with a final volume of 100 µL. The inoculum densities were checked spectrophotometrically (Multiskan™ GO Microplate Spectrophotometer, Thermo Scientific, Waltham, MA, USA) at 600 nm. The results were read after incubation for 18 h at 37 °C. The MIC values were the lowest concentration at which a visible growth of microorganisms was inhibited. All experiments were conducted in triplicate. Moreover, positive (growth) and negative (sterility) controls were included.

[2] = tested on: Klebsiella pneumoniae ATCC 700603; format: cell-based; settings: calculated from MHC5 (hRBCs) and MIC
Experimental: as §1

[3] = tested on: Enterococcus faecium ATCC 700221; format: cell-based; settings: calculated from MHC5 (hRBCs) and MIC
Experimental: as §1

[4] = tested on: Klebsiella aerogenes ATCC 13048; format: cell-based; settings: calculated from MHC5 (hRBCs) and MIC
Experimental: as §1

[5] = tested on: reference strains of Staphylococcus aureus; format: cell-based; settings: selectivity index, hRBC MHC5 over GM of MIC against S. aureus strains
Experimental: Selectivity indexes were calculated based on the MHC5 and geometric mean (GM) of MIC values against S. aureus strains.
as §1, with “The initial inoculums of bacteria (0.5 × 10^5 colony forming units (CFU)/mL) prepared in Mueller–Hinton broth were exposed to the ranging concentrations of peptides (1–512 µg/mL). The experiments were conducted on 96-well microtiter plates, with a final volume of 100 µL. The inoculum densities were checked spectrophotometrically (Multiskan™ GO Microplate Spectrophotometer, Thermo Scientific, Waltham, MA, USA) at 600 nm.” left out, “The MIC values were the lowest concentration at which a visible growth of microorganisms was inhibited. All experiments were conducted in triplicate. Moreover, positive (growth) and negative (sterility) controls were included.” left out

[6] = calculated from MHC5 (hRBCs) and MIC

| Compound | Selectivity index P. aeruginosa [1] | Selectivity index K. pneumoniae [2] | Selectivity index E. faecium [3] | Selectivity index K. aerogenes [4] | SI (MHC5/GM) [5] | Selectivity index A. baumannii [6] |
| --- | --- | --- | --- | --- | --- | --- |
| CC[C@H](C)[C@H](NC(=O)[C@H](CCCNC(=N)N)NC(=O)[C@H](CCC(N)=O)NC(=O)[C@@H](NC(=O)[C@@H](NC(=O)[C@H](CCCNC(=N)N)NC(=O)[C@H](CCCCN)NC(=O)c1ccccc1)[C@@H](C)CC)C(C)C)C(=O)N[C@@H](CCCCN)C(=O)N[C@@H](CC(=O)O)C(=O)N[C@@H](Cc1ccccc1)C(=O)N[C@@H](CC(C)C)C(=O)N[C@@H](CCCNC(=N)N)C(N)=O [XV, Benzoic acid-KR12-NH2] (Bz-KRIVQRIKDFLR-NH2) | 4 | 8 | 64 | 8 | ≥16 | 16 |
| CC[C@H](C)[C@H](NC(=O)[C@H](CCCNC(=N)N)NC(=O)[C@H](CCC(N)=O)NC(=O)[C@@H](NC(=O)[C@@H](NC(=O)[C@H](CCCNC(=N)N)NC(=O)[C@H](CCCCN)NC(=O)Cc1ccccc1)[C@@H](C)CC)C(C)C)C(=O)N[C@@H](CCCCN)C(=O)N[C@@H](CC(=O)O)C(=O)N[C@@H](Cc1ccccc1)C(=O)N[C@@H](CC(C)C)C(=O)N[C@@H](CCCNC(=N)N)C(N)=O [XVI, Phenylacetic acid-KR12-NH2] (PhAc-KRIVQRIKDFLR-NH2) | 2 | 4 | 32 | 4 | 6.06 | 8 |
| CC[C@H](C)[C@H](NC(=O)[C@H](CCCNC(=N)N)NC(=O)[C@H](CCC(N)=O)NC(=O)[C@@H](NC(=O)[C@@H](NC(=O)[C@H](CCCNC(=N)N)NC(=O)[C@H](CCCCN)NC(=O)c1ccc(-c2ccccc2)cc1)[C@@H](C)CC)C(C)C)C(=O)N[C@@H](CCCCN)C(=O)N[C@@H](CC(=O)O)C(=O)N[C@@H](Cc1ccccc1)C(=O)N[C@@H](CC(C)C)C(=O)N[C@@H](CCCNC(=N)N)C(N)=O [XXI, 4-Phenylbenzoic acid-KR12-NH2] ({Benzoyl(4-Ph)}-KRIVQRIKDFLR-NH2) | 2 | 4 | 16 | 8 | – | 4 |
| KRIVQRIKDFLR-NH2 [I, KR12-NH2] | 4 | 1 | 4 | 1 | – | 2 |
